# Library screen at single concentrations

Chains of the proteins cited; added tags and fusions are not shown. Residues count along the entry.
UniProt I6X8D2, whole entry: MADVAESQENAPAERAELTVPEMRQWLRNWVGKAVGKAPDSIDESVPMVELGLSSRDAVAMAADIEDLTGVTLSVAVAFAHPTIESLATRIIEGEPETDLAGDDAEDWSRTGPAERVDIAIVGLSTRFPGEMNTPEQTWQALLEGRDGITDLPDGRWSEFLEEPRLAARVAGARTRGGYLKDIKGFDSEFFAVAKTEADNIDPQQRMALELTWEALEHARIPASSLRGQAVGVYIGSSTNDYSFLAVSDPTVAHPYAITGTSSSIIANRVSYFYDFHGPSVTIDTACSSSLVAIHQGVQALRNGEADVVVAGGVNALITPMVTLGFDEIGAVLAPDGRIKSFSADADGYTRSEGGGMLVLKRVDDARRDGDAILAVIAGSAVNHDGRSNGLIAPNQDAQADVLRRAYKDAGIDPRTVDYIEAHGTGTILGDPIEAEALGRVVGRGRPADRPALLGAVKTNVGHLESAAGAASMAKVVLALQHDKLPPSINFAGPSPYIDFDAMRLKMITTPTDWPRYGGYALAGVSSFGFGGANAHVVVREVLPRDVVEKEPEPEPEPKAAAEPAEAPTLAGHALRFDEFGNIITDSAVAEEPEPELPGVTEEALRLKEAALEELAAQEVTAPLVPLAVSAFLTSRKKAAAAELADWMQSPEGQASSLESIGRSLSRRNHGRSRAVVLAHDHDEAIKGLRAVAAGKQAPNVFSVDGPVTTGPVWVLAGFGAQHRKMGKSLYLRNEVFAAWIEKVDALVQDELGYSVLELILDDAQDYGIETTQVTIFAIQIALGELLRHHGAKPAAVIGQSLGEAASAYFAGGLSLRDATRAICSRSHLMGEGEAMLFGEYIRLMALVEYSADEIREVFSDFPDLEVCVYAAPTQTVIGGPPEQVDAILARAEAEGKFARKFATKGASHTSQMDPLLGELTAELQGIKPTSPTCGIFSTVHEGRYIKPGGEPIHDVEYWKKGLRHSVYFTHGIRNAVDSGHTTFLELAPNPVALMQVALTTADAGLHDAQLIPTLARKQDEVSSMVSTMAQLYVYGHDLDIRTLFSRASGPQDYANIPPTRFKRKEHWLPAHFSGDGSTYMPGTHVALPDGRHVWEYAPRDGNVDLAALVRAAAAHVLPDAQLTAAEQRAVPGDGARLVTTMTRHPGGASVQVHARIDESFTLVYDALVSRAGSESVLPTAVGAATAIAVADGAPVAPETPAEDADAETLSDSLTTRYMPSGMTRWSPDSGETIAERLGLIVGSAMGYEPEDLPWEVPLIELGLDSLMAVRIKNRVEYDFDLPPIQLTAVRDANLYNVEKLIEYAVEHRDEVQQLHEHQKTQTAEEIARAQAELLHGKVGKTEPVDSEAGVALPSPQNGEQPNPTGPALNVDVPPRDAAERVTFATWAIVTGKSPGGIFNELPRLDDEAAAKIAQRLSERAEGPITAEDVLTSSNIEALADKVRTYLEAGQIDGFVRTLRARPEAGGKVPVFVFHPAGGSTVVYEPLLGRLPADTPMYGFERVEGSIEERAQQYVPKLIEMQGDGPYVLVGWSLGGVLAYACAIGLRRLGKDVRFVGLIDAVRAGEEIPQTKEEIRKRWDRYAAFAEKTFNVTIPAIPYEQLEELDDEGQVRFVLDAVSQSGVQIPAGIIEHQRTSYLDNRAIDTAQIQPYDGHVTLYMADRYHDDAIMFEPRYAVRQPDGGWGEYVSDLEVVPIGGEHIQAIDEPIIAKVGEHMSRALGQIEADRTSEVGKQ
UniProt Q4DA54, 1-478: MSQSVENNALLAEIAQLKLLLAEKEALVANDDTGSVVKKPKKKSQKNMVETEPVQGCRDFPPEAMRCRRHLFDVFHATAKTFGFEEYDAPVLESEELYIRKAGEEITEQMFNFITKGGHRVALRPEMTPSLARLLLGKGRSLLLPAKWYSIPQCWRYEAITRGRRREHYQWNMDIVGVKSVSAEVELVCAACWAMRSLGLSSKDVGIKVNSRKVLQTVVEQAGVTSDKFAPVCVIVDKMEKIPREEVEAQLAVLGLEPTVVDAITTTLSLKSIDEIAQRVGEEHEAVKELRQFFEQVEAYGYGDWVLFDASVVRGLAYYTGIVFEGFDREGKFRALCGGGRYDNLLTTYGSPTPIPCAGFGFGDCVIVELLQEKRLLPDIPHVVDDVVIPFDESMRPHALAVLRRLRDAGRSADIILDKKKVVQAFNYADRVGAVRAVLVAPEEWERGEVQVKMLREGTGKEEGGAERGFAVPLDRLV
UniProt P9WPC5, whole entry: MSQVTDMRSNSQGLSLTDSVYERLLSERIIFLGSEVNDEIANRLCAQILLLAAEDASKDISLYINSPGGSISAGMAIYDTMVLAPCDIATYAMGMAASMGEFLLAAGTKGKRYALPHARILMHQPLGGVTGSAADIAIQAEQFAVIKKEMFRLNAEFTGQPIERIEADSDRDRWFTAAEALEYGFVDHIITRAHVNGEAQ
UniProt P9WPC3, whole entry partner: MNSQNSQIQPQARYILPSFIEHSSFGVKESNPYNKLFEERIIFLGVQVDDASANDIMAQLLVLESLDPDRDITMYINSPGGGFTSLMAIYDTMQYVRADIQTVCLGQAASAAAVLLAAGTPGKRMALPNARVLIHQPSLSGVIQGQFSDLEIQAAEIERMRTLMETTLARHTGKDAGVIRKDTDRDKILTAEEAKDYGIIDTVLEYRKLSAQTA
UniProt A4I591, 1-473: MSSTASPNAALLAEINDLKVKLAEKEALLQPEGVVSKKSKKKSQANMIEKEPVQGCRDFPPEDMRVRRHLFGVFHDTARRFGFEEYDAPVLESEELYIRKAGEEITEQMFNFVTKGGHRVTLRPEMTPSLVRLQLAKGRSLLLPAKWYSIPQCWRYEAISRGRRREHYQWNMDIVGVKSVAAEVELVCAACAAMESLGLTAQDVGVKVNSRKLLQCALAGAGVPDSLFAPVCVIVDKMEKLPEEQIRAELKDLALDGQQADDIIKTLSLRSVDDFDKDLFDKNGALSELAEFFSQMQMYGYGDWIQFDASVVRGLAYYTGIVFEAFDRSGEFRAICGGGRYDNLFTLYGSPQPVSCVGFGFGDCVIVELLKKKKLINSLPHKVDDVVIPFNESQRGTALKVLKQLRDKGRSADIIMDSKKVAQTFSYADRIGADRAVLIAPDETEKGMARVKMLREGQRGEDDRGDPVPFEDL

Source: ChEMBL document CHEMBL3988442, “University of Dundee, Small-Polar-MMV Screening Library” (2021).

A: 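Polyketide synthase Pks13, Mycobacterium tuberculosis (UniProt I6X8D2). Enzyme assay of the thioesterase domain of polyketide synthase 13; the read-out is not stated. Tested at 30 µM. Higher reads as stronger inhibition (inferred from which compounds were picked for retests). Of about 67,000 compounds tested this way, about 300 (0.46%) reached 50% or more in at least one test.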
B: 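Enzyme assay of histidyl-tRNA synthetase; the read-out is not stated. Target: Histidine-tRNA ligase, Trypanosoma cruzi CL Brener (UniProt Q4DA54). Compounds at 30 µM. Higher reads as stronger inhibition (inferred: compounds with an IC50 in retests scored well above the rest). About 69,000 compounds were tested under these conditions; 0.045% (about 31) showed 50% or more at least once.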
C: 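Protease assay of ClpP1P2, read by the AMC dye that it sets free. Target: ClpP1P2, Mycobacterium tuberculosis (UniProt P9WPC5 and UniProt P9WPC3). Tested at 50 µM. Higher reads as stronger inhibition, judged from the few compounds that gave an IC50. Most other retested compounds had strongly negative values. Of about 69,000 compounds tested this way, about 10 (0.015%) reached 50% or more in at least one test.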
D: 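Cell assay of Leishmania donovani living inside macrophages; the read-out is not stated. Tested at 30 µM. The record gives no direction; compounds that gave an IC50 in retests scored well above the rest, so higher reads as stronger inhibition. Of about 69,000 compounds tested this way, about 1,000 (1.5%) reached 50% or more in at least one test.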
E: 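Histidine-tRNA ligase, Leishmania infantum (UniProt A4I591). Enzyme assay of histidyl-tRNA synthetase; the read-out is not stated. Tested at 30 µM. The record gives no direction; compounds that gave an IC50 in retests scored well above the rest, so higher reads as stronger inhibition. The assay is labelled LdHisRS but filed under L. infantum. Size under these conditions: about 69,000 compounds, about 410 of them at 50% or above in at least one test.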

Values are the deposited “Percent Effect”, in %. The record does not define 0% and 100%; most values in the screen are far below 50% and negative numbers occur (in some assays of this library far below -100). Compounds were drawn at random from those tested, without regard to their results. A dash means the value is not listed here; it may have been measured.

SMILES | A | B | C | D | E
CC(C)CCN(C)C(=O)c1cnc2c(cnn2CC(C)C)c1 | -17.98 | 5.952 | -9.16 | -19.15 | 0
C=C(C)CN(CC)Cc1nc(C(C)(C)C)no1 | 12.15 | -2.703 | -17.21 | -27.3 | 5.128
CN(C)Cc1ccc(C2CCCCN2C(=O)c2ncccc2O)cc1 (stereo not drawn) | -12.83 | 3.061 | -5.276 | 18.55 | 5.556
CN(CCc1ccccc1)c1cnn(C)c(=O)c1Br | 5.166 | -1.493 | -14.69 | 3.832 | 3.614
O=C(NCCc1nnc2n1CCC2)N1CCC2(CCCCC2)C1 | 6.373 | 2.809 | -0.06963 | 10.65 | 7.692
CC(C)C(=O)N1CCC12CCCN(C(=O)c1ccnnc1)C2 (stereo not drawn) | -16.26 | -6.897 | 1.063 | 14.58 | -2.632
COc1cc(CNC2CCc3nc(C(C)C)nn3C2)cc2c1OCO2 (stereo not drawn) | -5.513 | -0.7576 | 2.058 | 12.99 | 4.545
Cc1cc(NC(=O)CNc2ccc(Br)cc2F)on1 | -18.77 | 11.31 | 3.996 | 12.47 | 24.73
CC(=O)N1CCC(C(=O)NC2CC(C)(C)Oc3cc(C)ccc32)CC1 (stereo not drawn) | -11.25 | 6.173 | -4.152 | 1.658 | 15.05
CNc1nc(C2CCCN2C(C)=O)nc2c1CCN(CC1CC1)C2 (stereo not drawn) | -17.12 | 5.376 | 1.075 | 32.46 | -34.29
Cc1nccc(-c2ccccc2)c1C(=O)N1CC[C@](C)(O)C(C)(C)C1 | -27.23 | 6.077 | -3.886 | 20.06 | 12.68
Cc1ccc(S(=O)(=O)NCc2[nH]ncc2Br)cc1C | -10.59 | 9.524 | 3.043 | 16.45 | 8.219
COc1cccc(CC(=O)N2CCc3nc(C(N)=O)sc3CC2)c1 | -37.95 | 3.743 | 0.5338 | 18.53 | 14.53
Cc1ccnc(CC(C)N(C)Cc2ccc3c(c2)OCCO3)c1 (stereo not drawn) | -27.96 | 4.124 | -2.841 | 26.91 | 8.571
Cc1n[nH]c(C)c1NC(=O)CN1CCCC1c1noc(C2CC2)n1 (stereo not drawn) | -10.93 | 1.724 | 13.98 | 6.65 | -6.957
Cc1nc(CN2CCOCC2c2[nH]ncc2C)cs1 (stereo not drawn) | -4.775 | 2.825 | -42.48 | 18.82 | 6.993
[H][C@@]12COC[C@H](c3nc(C)no3)[C@]1([H])CN(C(=O)Cc1cccc(F)c1)C2 | - | - | - | 29.86 | -
Cc1ccc(OCC2CCCN(C(=O)c3csc(CN(C)C)n3)C2)cc1 (stereo not drawn) | -11.78 | 2.609 | -5.2 | -9.732 | 16.67
c1cc(CN2CCc3c(CN4CCCC4)n[nH]c3C2)ccn1 | -11.78 | -1.227 | 3.931 | -25.6 | 10.26
COCCO[C@H]1CCN(C(=O)c2cccnc2)[C@H]1Cc1cnn(C)c1.O=C(O)C(F)(F)F | - | - | - | -22.64 | -
O=C(O)C(F)(F)F.[H][C@@]12C[C@@H](C(=O)NC(C)C)C[C@@]1([H])N(Cc1cnn(C)c1)CCO2 | - | - | - | -25.19 | -
CCC1CN(C)c2ccccc2CN1C(=O)Nc1ccc(C)cc1 (stereo not drawn) | -12.02 | 4.103 | -9.874 | -17.54 | 6.122
CC(Cn1cccn1)NC(=O)N(C)Cc1ccc(Cl)s1 (stereo not drawn) | -31.23 | 0.7519 | -4.941 | -44.54 | 16.85
Fc1cccc(CN2C[C@@H]3COC[C@]3(COCc3ccncc3)C2)c1 | 0.5538 | 7.563 | -8.581 | - | 4.587
O=C(NCCCN1CCOCC1)c1ccn(COc2ccc(F)cc2)n1 | 0.3191 | 2.609 | -16.04 | -4.205 | -3.448
CC(C(=O)N(C)C)N1CCCN(C(=O)Oc2ccccc2)CC1 (stereo not drawn) | 5.537 | -1.667 | -9.49 | 8.712 | -24.53
Cc1nc(N2CCN(C(=O)c3ccccc3)CC2)cc(-n2ccnc2)n1 | -7.825 | -2.273 | -2.84 | -13.8 | 10
CCS(=O)(=O)NC1CCCN(c2ccc(F)cc2C)C1=O (stereo not drawn) | 1.866 | 6.637 | -12.32 | -7.634 | 7.965
CNC(=O)N1C[C@H]2CC[C@@]3(N=C(c4ccccc4)NC3=O)[C@H]2C1 | -17.18 | -0.8368 | -9.683 | - | 17.92
COCCNC(=O)Cn1cc2c(n1)c(C)nn2C | -15.02 | 7.921 | 2.928 | -28.68 | 20.88
OCC1CCCN1c1cc(N2CCc3ccccc3C2)ncn1 (stereo not drawn) | -20.96 | -7.925 | 2.674 | 15.56 | 18.67
CCCN(C(=O)CS(=O)(=O)c1ccccc1)c1cccc(C)c1 | - | 4.762 | -7.98 | -3.721 | 8.824
COC(=O)c1ccc(N2CCN(CC(=O)NC(N)=O)C(C)C2)cc1 (stereo not drawn) | -20.77 | 3.468 | -35.92 | 36.68 | 9.821
CS(=O)(=O)CCNC(=O)C1(c2cccc(Cl)c2)CCCCC1 | 2.145 | 6.504 | -0.8837 | -14.45 | -0.9615
CSCc1cc(C(=O)NC2(C#N)CC2)ccc1F | -27.42 | -0.431 | -6.709 | 19.43 | 18.99
[H][C@]12CC[C@]([H])(CN(c3ccnc(SC)n3)C1)N(CC1CCC1)C2=O | - | - | - | 10.16 | -
[H][C@@]12COC[C@@H](C(=O)Nc3cnccn3)[C@]1([H])CN(c1ncc(F)cn1)C2 | - | - | - | 13.47 | -
CCCOC1CCCN(C(=O)c2[nH]nc(C)c2Br)C1 (stereo not drawn) | -23.35 | 5.155 | 2.54 | 5.572 | 2.857
CN(C)c1ncccc1NC(=O)C1CN(Cc2ccccc2)CCO1 (stereo not drawn) | -8.51 | 8.333 | -4.653 | 19.01 | 20.54

The first 4 entries again:

SMILES	A	B	C	D	E
CC(C)CCN(C)C(=O)c1cnc2c(cnn2CC(C)C)c1	-17.98	5.952	-9.16	-19.15	0
C=C(C)CN(CC)Cc1nc(C(C)(C)C)no1	12.15	-2.703	-17.21	-27.3	5.128
CN(C)Cc1ccc(C2CCCCN2C(=O)c2ncccc2O)cc1 (stereo not drawn)	-12.83	3.061	-5.276	18.55	5.556
CN(CCc1ccccc1)c1cnn(C)c(=O)c1Br	5.166	-1.493	-14.69	3.832	3.614